Reference: the supplement of paper PMC4604168 (melanoma cell lines)
Some of the results follow. Many values rest on one well or one pass, so single values are uncertain.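 The apoptosis fraction was the count of cleaved-PARP antibody-stained nuclei relative to all DNA-stained nuclei, imaged in 1,536-well plates. Screening doses were set so most cells survived, and baseline and induced cleaved-PARP levels vary greatly across cell lines.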

Assays:
Assay in all cases: cleaved PARP positive nuclei fraction relative to DMSO control; melanoma cells; higher = more apoptosis
Conditions in all cases: library dose: low library concentration; 72 h
501Mel = system: 501Mel
A101D = system: A101D
A2058 = system: A2058
A375 = system: A375
C32 = system: C32
CBRC008 = system: CBRC008 (line from a melanoma biopsy)
CBRC013 = system: CBRC013 (line from a melanoma biopsy)
CBRC014 = system: CBRC014 (line from a melanoma biopsy)
CBRC016 = system: CBRC016 (line from a melanoma biopsy)
CBRC017 = system: CBRC017 (line from a melanoma biopsy)

Compound | cleaved PARP positive nuclei fraction (501Mel) [%] | cleaved PARP positive nuclei fraction (A101D) [%] | cleaved PARP positive nuclei fraction (A2058) [%] | cleaved PARP positive nuclei fraction (A375) [%] | cleaved PARP positive nuclei fraction (C32) [%] | cleaved PARP positive nuclei fraction (CBRC008) [%] | cleaved PARP positive nuclei fraction (CBRC013) [%] | cleaved PARP positive nuclei fraction (CBRC014) [%] | cleaved PARP positive nuclei fraction (CBRC016) [%] | cleaved PARP positive nuclei fraction (CBRC017) [%]
Cc1nc(Nc2ncc(C(=O)Nc3c(C)cccc3Cl)s2)cc(N2CCN(CCO)CC2)n1 [dasatanib] + OCCn1cc(-c2cnc3nnn(Cc4ccc5ncccc5c4)c3n2)cn1 [PF04217903] (first compound 0.004 µM, partner dose 1 µM) | 90.3 | 79.3 | 106 | 108 | 233 | 26.3 | 83.4 | 85.8 | 29.4 | 90.3
C#Cc1cccc(Nc2ncnc3cc(OCCOC)c(OCCOC)cc23)c1 [erlotinib] + NCC(=O)Nc1ccc(-n2nc(C(F)(F)F)cc2-c2ccc3c(ccc4ccccc43)c2)cc1 [OSU03012] (first compound 0.8 µM, partner dose 1 µM) | 192 | 102 | 89 | 3640 | 44.4 | 155 | 141 | 104 | 108 | 199
CC(=O)c1c(C)c2cnc(Nc3ccc(N4CCNCC4)cn3)nc2n(C2CCCC2)c1=O [palbociclib] + OCCn1cc(-c2cnc3nnn(Cc4ccc5ncccc5c4)c3n2)cn1 [PF04217903] (first compound 0.04 µM, partner dose 1 µM) | 265 | 96.6 | 157 | 237 | 121 | 174 | 112 | 85 | 116 | 138
Cn1cncc1[C@@](N)(c1ccc(Cl)cc1)c1ccc2c(c1)c(-c1cccc(Cl)c1)cc(=O)n2C [tipifarnib] + CN(C)S(=O)(=O)c1ccc2c(c1)/C(=C/c1cc3c([nH]1)CCCC3)C(=O)N2 [SU6656] (first compound 0.01 µM, partner dose 0.4 µM) | 89.5 | 267 | 77.6 | 155 | 104 | 57.7 | 106 | 109 | 240 | 122
CC(C)(C)c1cnc(CSc2cnc(NC(=O)C3CCNCC3)s2)o1 + COc1cc2c(Oc3ccc4[nH]c(C)cc4c3F)ncnc2cc1OCCCN1CCCC1 [cediranib] (first compound 0.01 µM, partner dose 0.4 µM) | 82.5 | 82.3 | 66.5 | 88 | 89.9 | 57.3 | 138 | 93.2 | 96.1 | 83.9
OCCn1cc(-c2cnc3nnn(Cc4ccc5ncccc5c4)c3n2)cn1 + CN(NC(=O)CC(=O)NN(C)C(=S)c1ccccc1)C(=S)c1ccccc1 [STA4783] (first compound 1 µM, partner dose 0.006 µM) | 132 | 173 | 166 | 396 | 123 | 1220 | 115 | 272 | 111 | 99.8
C=CCNC1=C2C[C@@H](C)C[C@H](OC)[C@H](O)[C@@H](C)/C=C(\C)[C@H](OC(N)=O)[C@@H](OC)/C=C\C=C(/C)C(=O)NC(=CC1=O)C2=O [Tanespimycin] + Cc1cc(N2CCOCC2)cc2[nH]c(-c3c(NC[C@@H](O)c4cccc(Cl)c4)cc[nH]c3=O)nc12 [BMS536924] (first compound 0.002 µM, partner dose 0.2 µM) | 138 | 254 | 97.8 | 125 | 284 | 242 | 137 | 89.3 | 103 | 101
C[C@]1(c2nc3c(C(N)=O)cccc3[nH]2)CCCN1 [Veliparib] + CN(C)S(=O)(=O)c1ccc2c(c1)/C(=C/c1cc3c([nH]1)CCCC3)C(=O)N2 [SU6656] (first compound 1.4 µM, partner dose 0.4 µM) | 134 | 292 | 122 | 254 | 134 | 131 | 183 | 109 | 51.1 | 110
Nc1cccc2c1CN(C1CCC(=O)NC1=O)C2=O (stereo not given) [lenalidomide] + CO[C@@H]1[C@H](N(C)C(=O)c2ccccc2)C[C@H]2O[C@]1(C)n1c3ccccc3c3c4c(c5c6ccccc6n2c5c31)C(=O)NC4 [Midostaurin] (first compound 1 µM, partner dose 0.08 µM) | 73.6 | 79 | 95.2 | 210 | 143 | 120 | 111 | 91.2 | 193 | 96
COCC[n+]1c2c(n(Cc3cnccn3)c1C)C(=O)c1ccccc1C2=O + O=C(Nc1cccc(Cl)c1)Nc1ncc(CCNc2ncnc3ccsc23)s1 [SNS314] (first compound 0.0004 µM, partner dose 0.0008 µM) | 83.3 | 20.3 | 181 | 126 | 60 | 1250 | 111 | 76.2 | 120 | 102
O=C(CCCCCCC(=O)Nc1ccccc1)NO [vorinostat] + Cc1cc(N2CCOCC2)cc2[nH]c(-c3c(NC[C@@H](O)c4cccc(Cl)c4)cc[nH]c3=O)nc12 [BMS536924] (first compound 0.08 µM, partner dose 0.2 µM) | 104 | 40.9 | 201 | 62.3 | 275 | 185 | 127 | 93.1 | 27 | 203
